Data as given in publication PMC12732646, “Peroxisome Proliferator-Activated Receptor α/δ/γ Activation Profile by Endogenous Long-Chain Fatty Acids” (International Journal of Molecular Sciences, 2025).
Results are given in words; binding and its absence hold for the method and conditions named. Some binding calls cover weakened binding; strength is not graded here.

The chains behind the UniProt entries cited, without tags or fusion partners. Residues count along the entry.
UniProt P37231, residues 231-505: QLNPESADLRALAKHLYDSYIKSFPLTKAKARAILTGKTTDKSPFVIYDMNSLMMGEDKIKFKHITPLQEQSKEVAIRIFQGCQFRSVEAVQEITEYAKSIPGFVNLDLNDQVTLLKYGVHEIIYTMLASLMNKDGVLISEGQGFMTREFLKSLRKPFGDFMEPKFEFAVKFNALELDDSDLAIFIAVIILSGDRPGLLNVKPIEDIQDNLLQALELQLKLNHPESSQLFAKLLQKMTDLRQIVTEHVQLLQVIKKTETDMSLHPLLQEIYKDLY

Biological target: Human PPARγ-LBD (isoform 1; amino acids 203–477) (human) (UniProt P37231)
Assay: FRET or BRET; same cell-free TR-FRET coactivator recruitment; with 14 long-chain fatty acids (C12:0–C22:6) or 15d-PGJ2 (in ethanol), concentration series; response as percent of the maximal response with 1 µM GW full agonist; both purified

Row | Binder | binding
1 | SGNLVPDAASKHKQLSELLRGGSGS (biotin-labeled (position not given)) [CBP coactivator peptide, AAs 56–80] | binds weakly
2 | PVSSMAGNTKNHPMLMNLLKDNPAQ (biotin-labeled (position not given)) [TRAP220 coactivator peptide, AAs 631–655] | binds weakly
